# Data published in the RNAGym collection of RNA variant scans (doi:10.1126/science.aae0568).
# Variants at the floor of the assay are shown more often than the library holds them.
# B1: tRNA (parent)
# chain: GUUCCGUUGGCGUAAUGGUAACGCGUCUCCCUCCUAAGGAGAAGACUGCGGGUUCGAGUCCCGUACGGAACG
# Variants of: B1
# Assay: yeast fitness relative to wild type (ratio to wild type); higher = fitter; tRNA-Arg(CCU), competitive growth, 37 C, YPD
# In short: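 For this measurement, the tRNA-Arg(CCU) gene was varied by chemical synthesis at a 3% per-site mutation rate across 69 sites, and each variant was placed at the native genomic locus in Saccharomyces cerevisiae. The pooled strains went through a 24-hour competition in YPD at 37°C in six parallel replicates, with amplicons from start and end populations read by 100-nucleotide paired-end sequencing. Darwinian fitness relative to wild type followed from the change in each genotype's frequency. Genotypes needed ≥ 100 starting reads, and estimates < 0.5 were set to 0.5.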
row,Variant,yeast fitness
1,G6A C55U G63C,≤ 0.5
2,G6A G9C C11G C34U G48A,≤ 0.5
3,G6A G9C C27A C31A C49G,≤ 0.5
4,G6A G17A G67U,≤ 0.5
5,G6A G38A A43G,≤ 0.5
6,G6A U8A G23A C30G A65U,≤ 0.5
7,G6A U13A U19C A40U,≤ 0.5
8,G6A U13C C62A,≤ 0.5
9,G6A U26A G48C C66U A69U,≤ 0.5
10,G6A U32C C46U G52A,≤ 0.5
11,G6C A14U A36G A42G,≤ 0.5
12,G6C A15C G56A C61G,≤ 0.5
13,G6C A20C C22A A36C A69U,≤ 0.5
14,G6C A21G C55A C61A,≤ 0.5
15,G6C A42C C49U C55U G68C,≤ 0.5
16,G6C A45C G67C,0.536
17,G6C A45G C49G,≤ 0.5
18,G6C C11A C34G A65U,≤ 0.5
19,G6C C11G A15G G68C,0.503
20,G6C C24G C34U U53C C55G A69C,≤ 0.5
21,G6C C24U,0.751
22,G6C C27G C31G,≤ 0.5
23,G6C C27U U28A U32A C34U A36C C55A,≤ 0.5
24,G6C C29G A40U,≤ 0.5

row,Variant,yeast fitness
1,G6C C29G C61U,≤ 0.5
2,G6C C33G C34U G58A,≤ 0.5
3,G6C C33G G39C,≤ 0.5
4,G6C G10C G48C C62G A65U,≤ 0.5
5,G6C G17A A36U A57G U59C A69U,≤ 0.5
6,G6C G41C C49G C55U,≤ 0.5
7,G6C G56C G63A,≤ 0.5
8,G6C U7A A21C A37C U47C A69C,≤ 0.5
9,G6C U8C A21C,≤ 0.5
10,G6C U8C A42G C46U C55G A65U,≤ 0.5
11,G6C U8C G68C,≤ 0.5
12,G6C U13C C31G C33A G67A,≤ 0.5
13,G6C U53C A65G,≤ 0.5
14,G6U A40G C49A C61G,≤ 0.5
15,G6U C29U C62U A70U,≤ 0.5
16,U7A A14U A57U,≤ 0.5
17,U7A A15G C34G U59C A69C,≤ 0.5
18,U7A A20C A21G G23A G52A,≤ 0.5
19,U7A A20G G23A U26G C61U,≤ 0.5
20,U7A A20G G23A U26G C62U,≤ 0.5
21,U7A A21C C31G C62U A69G,≤ 0.5
22,U7A A21G C61G C66G,≤ 0.5
23,U7A A36U A45G U47A A69C A70U,≤ 0.5
24,U7A A40G,0.73

row,Variant,yeast fitness
1,U7A C11A C30U U32A,≤ 0.5
2,U7A C22U G23A C46A,≤ 0.5
3,U7A C27A A37C C55G,≤ 0.5
4,U7A C29G A69C,≤ 0.5
5,U7A C30U G39A A40G G67A,≤ 0.5
6,U7A C34G G38C,≤ 0.5
7,U7A C46G C62G A70C,≤ 0.5
8,U7A G10A A20C C29A,0.543
9,U7A G10A C49A,≤ 0.5
10,U7A G12A,0.783
11,U7A G12A C30U,≤ 0.5
12,U7A G17A A45C U47A G50A,≤ 0.5
13,U7A G41C A42U C62U,≤ 0.5
14,U7A G44C,0.718
15,U7A U8A C11G G56A A69U,0.548
16,U7A U8A G10C,≤ 0.5
17,U7A U16C A21U U26A C46U C60U,0.55
18,U7A U16C G17A C34G A45C G52C,≤ 0.5
19,U7A U19C A20C C33U U35A C49A,≤ 0.5
20,U7A U26C C34A C66A,≤ 0.5
21,U7A U35G,≤ 0.5
22,U7C A21U A36U A37C,≤ 0.5
23,U7C A40C G50A,≤ 0.5
24,U7C A42G U54C,0.549

row,Variant,yeast fitness
1,U7C A65G G68U,≤ 0.5
2,U7C A69C,0.921
3,U7C C11G C24A U47A U64C G67U,≤ 0.5
4,U7C C22U C29G G56A A70U,≤ 0.5
5,U7C C27U A45C C55U,≤ 0.5
6,U7C C30U C34A C62U A70U,≤ 0.5
7,U7C C30U U54A,≤ 0.5
8,U7C C31U A36G A43U C62G,≤ 0.5
9,U7C C33G A40G,≤ 0.5
10,U7C C34U,0.699
11,U7C C34U G52C,0.579
12,U7C G10A G50C G68C,≤ 0.5
13,U7C G12A U13G A14C U35C C49U,≤ 0.5
14,U7C G17A U28C,≤ 0.5
15,U7C G23A G25A A36U A43U,≤ 0.5
16,U7C G23C G48C,≤ 0.5
17,U7C U8C C61U G68C,≤ 0.5
18,U7C U28A A37G C46U U47C,≤ 0.5
19,U7C U28A G48C A70C,≤ 0.5
20,U7G A15C A40G,≤ 0.5
21,U7G A15G C55G,≤ 0.5
22,U7G A21C C34U,≤ 0.5
23,U7G A21U C29A C55A A69U,≤ 0.5
24,U7G A37U G39C A45G G50A,≤ 0.5

row,Variant,yeast fitness
1,U7G A43G C46G,≤ 0.5
2,U7G A43U G56C,≤ 0.5
3,U7G C22U G52A C55U,≤ 0.5
4,U7G C24G C27U C29A C66U,≤ 0.5
5,U7G C30U G38A G56C,≤ 0.5
6,U7G C34A,0.757
7,U7G G9A A43C,0.515
8,U7G G9A C31G C33U A36G,≤ 0.5
9,U7G G23C A45U G51C A69C,≤ 0.5
10,U7G G52A C55U,≤ 0.5
11,U7G U13A G58C G63C,≤ 0.5
12,U7G U19A C22G C24G A40G C55G A70U,≤ 0.5
13,U7G U26C C61U G63C,≤ 0.5
14,U7G U35G,0.536
15,U8A A14G C49G,0.538
16,U8A A15U A37C C46U G67C,≤ 0.5
17,U8A A21G C60G,≤ 0.5
18,U8A A36G C55G A57U C61U,≤ 0.5
19,U8A A40U A70C,0.547
20,U8A A40U U59A,≤ 0.5
21,U8A A57C,≤ 0.5
22,U8A A69C,0.915
23,U8A C22U A43G C66A,≤ 0.5
24,U8A C24U A40U A42C A45U U64A,≤ 0.5

row,Variant,yeast fitness
1,U8A C30U,0.665
2,U8A C34U A43U U59C G67C,≤ 0.5
3,U8A C34U C55G,≤ 0.5
4,U8A C34U C66U,≤ 0.5
5,U8A G9A C66A,≤ 0.5
6,U8A G18A A21U U28A C30G,≤ 0.5
7,U8A G18A C30A U32A U35G C62U,≤ 0.5
8,U8A G18C C24A U32C U64C A65G,≤ 0.5
9,U8A G23A C30G,≤ 0.5
10,U8A U13A C55U A70C,≤ 0.5
11,U8A U26A C29A C66A A70U,≤ 0.5
12,U8A U26C G38A C62U,≤ 0.5
13,U8A U26C U54C C55G C61A,≤ 0.5
14,U8C A14G U32A,0.538
15,U8C A15C A45C,0.674
16,U8C A20C C27G C46A G50A,≤ 0.5
17,U8C A20G A21U,≤ 0.5
18,U8C A21C C24G A65C G67C,≤ 0.5
19,U8C A37G C55G G68C,≤ 0.5
20,U8C A43C C49G C61A,0.693
21,U8C C11A C30A,≤ 0.5
22,U8C C22A U53A,≤ 0.5
23,U8C C22A U53A C62U,≤ 0.5
24,U8C C22G C29U A43U C46A,≤ 0.5

row,Variant,yeast fitness
1,U8C C22U G58C,≤ 0.5
2,U8C C24G G38C U53G A57G,≤ 0.5
3,U8C C29A A36C C61G C66U A69U,≤ 0.5
4,U8C C29G U32C,≤ 0.5
5,U8C C29U A42U A43U C55G,≤ 0.5
6,U8C C30U C31A C33G G48A C61G C66G,≤ 0.5
7,U8C C46A,1.01
8,U8C C66A,0.687
9,U8C G9C G68A,≤ 0.5
10,U8C G9U C27A,≤ 0.5
11,U8C G10A G58C A69U,≤ 0.5
12,U8C G12A C49G C60U C61G G67A,≤ 0.5
13,U8C G18C G50A C60U,0.546
14,U8C G25C C34G C61U,≤ 0.5
15,U8C G25C G38A G58A C60U C62U,≤ 0.5
16,U8C U13G A69U,≤ 0.5
17,U8C U19G C34U G52C,≤ 0.5
18,U8C U28C A37C G56A U59C,≤ 0.5
19,U8G A14C U26G A43G,≤ 0.5
20,U8G A14U U16C A40U G48C,≤ 0.5
21,U8G A37G A40G,≤ 0.5
22,U8G A57G A65G,≤ 0.5
23,U8G C22G C24G C30G A36G A65G,≤ 0.5
